# “Also recorded” adds a separate entry of the source. At least one structure is not confirmed: it was looked up by name or label, or the drawing left a doubt.
# Assays:
# HEXIM = HEXIM mRNA (RT-PCR) in compound (1-1)-sensitive NSCLC cell lines; type: cell-based; settings: 500 nM, 24 h
# [1] = tested on: HEXIM and genes coding for histones; test: HEXIM and histone gene mRNA (RT-PCR) in SCLC cell lines; type: cell-based; settings: 500 nM, 4 and 24 h, dihydrate
# NSCLC cell lines = test: Gene expression profiles (Illumina HumanHT-12) in NSCLC models; type: cell-based; settings: 500 nM
# [2] = tested on: HOP62, HOP92, A549 and H2228 cell lines; test: Combination with everolimus, Chou-Talalay method; type: cell-based; settings: 48 h concomitant exposure
# CMYC and NMYC = CMYC and NMYC mRNA (RT-PCR) in four SCLC cell lines; type: cell-based; settings: 500 nM, four SCLC cell lines (Example 10)
# STAT3 = test: Cell signaling pathways assessment (Western blot) in NSCLC cells; type: cell-based; settings: up to 72 h exposure
# H3122 cells = test: H3122 tumor-bearing mice; type: in vivo, male athymic NMRI nude mice; settings: 50 mg/kg/bidaily, gavage, continuous; vs vehicle and crizotinib 25 mg/kg/daily; dihydrate
# Procedure: In vivo studies: 5×10^6 H3122 cells were injected in the flank of male athymic NMRI nude mice, and mice were randomized to 3 groups (8 mice/group) when tumor volume reach 100 mm^3; vehicle (PBS, once daily, oral continuous), Compound (1-1) (50 mg/kg/bidaily, gavage, continuous), or crizotinib (25 mg/kg/daily, gavage, continuous).
# C-MYC [3] = test: C-MYC mRNA (RT-PCR) and protein (Western blot) in HOP92 cells; type: cell-based; settings: 500 nM, 4 and 24 h, dihydrate
# NSCLC cells = test: Cell cycle analysis, S phase, NSCLC cells; type: cell-based; settings: NSCLC cells after treatment; dihydrate
# N-MYC [4] = test: N-MYC mRNA (RT-PCR) in H3122 cells; type: cell-based; settings: 500 nM, 4 and 24 h, dihydrate
# C-MYC [5] = test: C-MYC mRNA (RT-qPCR) and protein (Western blot) in DMS114 cells; type: cell-based; settings: DMS114, 500 nM
# N-MYC [6] = test: N-MYC mRNA (RT-PCR) in HOP62 cells; type: cell-based; settings: 500 nM, 4 and 24 h, dihydrate
# A549 cells = test: MTT assay, growth inhibition; type: cell-based; settings: A549, mutations in KRAS and LKB1 genes, 72 h
# DMS114 cells = test: Cell cycle analysis (propidium iodide, FACScan); type: cell-based; settings: up to 72 h exposure, dihydrate
structure (smiles),measurement,setting,value
"Cc1sc2c(c1C)C(c1ccc(Cl)cc1)=N[C@@H](CC(=O)Nc1ccc(O)cc1)c1nnc(C)n1-2 [Compound (1-1), 2-[(6S)-4-(4-chlorophenyl)-2,3,9-trimethyl-6H-thienol[3,2-f]-[1,2,4]triazolo[4,3-a][1,4]diazepin-6-yl]-N-(4-hydroxyphenyl)acetamide dihydrate]",HEXIM mRNA,HEXIM,upregulated
same,mRNA levels of HEXIM and genes coding for histones,[1],upregulated; also recorded: upregulation
same,EFR3B and FOS gene expression,NSCLC cell lines,upregulation
same,IL7R and IL6-related gene expression,NSCLC cell lines,downregulation
same,combination effect with everolimus,[2],additive/synergistic effects
same,CMYC and NMYC mRNA levels,CMYC and NMYC,unchanged
same,STAT3 regulation,STAT3,transient upregulation of STAT3 with a subsequent down-regulation
same,tumor growth / tumor progression,H3122 cells,inhibited tumor growth to a similar extent as crizotinib; also recorded: slowed tumor progression
same,C-MYC mRNA and protein levels,C-MYC [3],downregulated; also recorded: rapid downregulation
same,cells in S phase,NSCLC cells,reduction in the percentage of cells in S phase; also recorded: increase in cells in the S phase
same,N-MYC mRNA levels,N-MYC [4],down-regulation; also recorded: downregulated; also recorded: rapid downregulation
same,C-MYC mRNA,C-MYC [5]; 4 and 24 hours,rapid downregulation of C-MYC mRNA
same,C-MYC protein,C-MYC [5]; after 24 hours exposure,downregulation
same,N-MYC mRNA levels,N-MYC [6],downregulated; also recorded: rapid downregulation
same,sensitivity of A549 cells (antiproliferative effect),A549 cells; dihydrate,abrogate compound (1-1) effects; also recorded: resistant
same,sensitivity of A549 cells (antiproliferative effect),"A549 cells; listed as OTX015, dihydrate",abrogate OTX015 effects
same,"cell cycle, G1 phase",DMS114 cells,cell cycle arrest in G1; also recorded: significantly increased the G1 phase cell fraction; also recorded: increase in the G1 phase

# From US9901583B2, “Method of treating non-small cell lung cancer and/or small cell lung cancer using thienotriazolodiazepine compounds” (ONCOETHIX GMBH, priority 2014, dated 2018)
